Reference: PubChem BioAssay AID588497 (NMMLSC, 2011)
Hit rate of the full screen: of about 360,000 compounds, about 780 (0.22%) were called active. Inconclusive results, whose numbers are uncertain, are shown with a selection of clear calls. Rule as the data show it: active = inhibition above about 35% (passing the limit was not always enough); inconclusive = no clear call, values can overlap the other calls.

These molecules were tested on Botulinum neurotoxin type F light chain protease (Clostridium botulinum) (assay: BoNT/F light chain protease inhibitors, primary screen, biochemical, flow cytometry, MLPCN library (AID 588497; also: plate controls were buffer without enzyme for full effect and enzyme alone for no effect)). Conditions: Multiplex microsphere protease cleavage assay, at 10 µM, stronger effect = higher value.

Structure (SMILES)	inhibition
O=c1[nH]c(SCc2ccccc2[N+](=O)[O-])nc2nc[nH]c12	inconclusive: 1.5%
C/C(=C\C(=O)O)C(=O)Nc1nccs1	inconclusive: -24.7%
Cc1ccc(OCCn2c(C)nc3ccccc32)cc1	inconclusive: 22.5%
CCCn1c(=O)c(C(=O)NCCc2ccc(OC)cc2)c(O)c2ccccc21	inconclusive: -27.9%
Nc1cccc2c1C(=O)N(C(=O)c1cccc(S(=O)(=O)N3CCCC3)c1)C2=O	inconclusive: 14.1%
CC1CCCC(NC(=O)CN2CCN(S(=O)(=O)c3ccc(Br)s3)CC2)C1C (stereo unspecified)	inconclusive: 2.5%
CCOC(=O)CN1C(=O)CC(c2ccc([N+](=O)[O-])cc2)C1=O (stereo unspecified)	inconclusive: -42.1%
Cc1cc(C(=O)NC2Cc3ccccc3C2)c(C)o1	inconclusive: -36.2%
CC1(C(=O)NS(=O)(=O)c2ccccc2OC(F)(F)F)CCN1C(=O)Cc1ccccc1 (stereo unspecified)	inactive: -2.8%
CC(=O)Nc1ccc(S(=O)(=O)N(CC(=O)NCC2CCCO2)Cc2ccccc2Cl)cc1 (stereo unspecified)	inactive: 2.6%
CN1CCN(c2nc(C(N)=O)cc(-c3ccccc3)n2)CC1	active: 36%
Cc1ccc(OC(=O)c2ccncc2)c(C)c1	active: 46.6%
Cc1cc(C(=O)CSc2ccc(F)cc2)cc(C)c1O	inconclusive: 4%
COc1ccc(-c2cc3ccc(OC(C)C(=O)O)cc3oc2=O)cc1 (stereo unspecified)	inconclusive: 8.4%
CCCCCCO	inactive: -3.6%
COc1ccccc1C1(O)CCN(CC(=O)Nc2nc(-c3ccccc3)cs2)CC1	inactive: 1.7%
CS(=O)(=O)N1CCN(c2ccccc2NC(=O)c2cccs2)CC1	inactive: -6.1%
Cn1nc(-c2ccccc2)c2nc3ccccc3nc21	inactive: 0.8%
O=C(CN1CCN(c2ccccc2)CC1)NCc1ccc(F)cc1	inconclusive: -11.4%
COc1cc(CN2CCN(C(=O)c3cccc4ccccc34)CC2)cc(OC)c1OC	inconclusive: 16.6%
COc1cccc(C(=O)/C=C2\NCCc3cc(OC)c(OC)cc32)c1	inconclusive: -33.5%
CCN1CCC(N2CCN(c3ccc(F)cc3)CC2)CC1	inconclusive: 8.2%
Cc1nc(CS(=O)(=O)c2ccccn2)sc1C(=O)NNC(=O)c1ccccc1	inconclusive: 48.9%
COc1cc(CNc2ccc(N3CCCCC3)cc2)ccc1OCC(=O)NC(C)(C)C	inconclusive: -21.5%
COc1ccc(Nc2cc(Nc3cccc(OC)c3)ncn2)cc1	inconclusive: -16%
Cc1ccccc1-n1c([C@@H]2C[C@H]2c2ccccc2)n[nH]c1=S	inconclusive: 13.7%

Taken from the listing for reference:
Structure (SMILES)	inhibition
CC1CCCC(NC(=O)CN2CCN(S(=O)(=O)c3ccc(Br)s3)CC2)C1C (stereo unspecified)	inconclusive: 2.5%
CCOC(=O)CN1C(=O)CC(c2ccc([N+](=O)[O-])cc2)C1=O (stereo unspecified)	inconclusive: -42.1%
Cc1cc(C(=O)NC2Cc3ccccc3C2)c(C)o1	inconclusive: -36.2%
CC1(C(=O)NS(=O)(=O)c2ccccc2OC(F)(F)F)CCN1C(=O)Cc1ccccc1 (stereo unspecified)	inactive: -2.8%
CC(=O)Nc1ccc(S(=O)(=O)N(CC(=O)NCC2CCCO2)Cc2ccccc2Cl)cc1 (stereo unspecified)	inactive: 2.6%
CN1CCN(c2nc(C(N)=O)cc(-c3ccccc3)n2)CC1	active: 36%
